{
  "source": "the supplement of paper PMC11348887",
  "note": "Where a name gives a salt, the structure may show the parent alone. ± gives the standard deviation of the averaged measurements. Some of the results follow. Most values lie at the level of the controls, where differences are scatter.",
  "data": [
    {"test_system": "hPSC-derived cortical neurons (WA09)", "assay": "nucleus area z-score vs screen plate; higher = larger nuclei (more mature)", "settings": "5 µM; treatment: days 7-14 after plating, readout day 21", "values": [
      {"smiles": "Cc1nc(NC(=O)N2CCC[C@H]2C(N)=O)sc1-c1ccnc(C(C)(C)C(F)(F)F)c1", "nucleus area z-score": -1.2},
      {"smiles": "COc1cc2nc(N3CCN(C(=O)C4CCCO4)CC3)nc(N)c2cc1OC", "note": "(centres undefined) [Terazosin HCl]", "nucleus area z-score": "0.198 ± 1"},
      {"smiles": "O=C1c2c(O)cc(O)cc2O[C@H](c2cc(O)c(O)c(O)c2)[C@H]1O", "note": "[Dihydromyricetin]", "nucleus area z-score": -1.69},
      {"smiles": "CN(C)CCCCC(=O)Nc1ccc(NC(=S)NC(=O)c2ccc(C(C)(C)C)cc2)cc1", "note": "[Tenovin-6]", "nucleus area z-score": -0.744},
      {"smiles": "Cc1ccc2c(Cl)cc(Cl)c(O)c2n1", "note": "[Chlorquinaldol]", "nucleus area z-score": 0.154},
      {"smiles": "O=C(O)CCc1nc2ccccc2[nH]1", "note": "[Procodazole]", "nucleus area z-score": 1.09},
      {"smiles": "N#CC1(c2ccc(NC(=O)c3cccnc3NCc3ccncc3)cc2)CCCC1", "note": "[Apatinib]", "nucleus area z-score": -0.141},
      {"smiles": "COc1cc(Nc2ncc(F)c(Nc3ccc4c(n3)NC(=O)C(C)(C)O4)n2)cc(OC)c1OC", "note": "[R406 (free base)]", "nucleus area z-score": -0.506},
      {"smiles": "Nc1nc(=O)[nH]cc1F", "note": "[Flucytosine]", "nucleus area z-score": 0.691},
      {"smiles": "O=C(C=Cc1ccccc1)NC(NC(=S)Nc1ccc(Cl)cc1)C(Cl)(Cl)Cl", "note": "(centres undefined)", "nucleus area z-score": 0.75},
      {"smiles": "O=C(NO)c1cccc(C(=O)NCCc2ccccc2)c1", "nucleus area z-score": 0.045},
      {"smiles": "CCC(=O)OCC(=O)[C@@]1(OC(=O)CC)[C@@H](C)C[C@H]2[C@@H]3CCC4=CC(=O)C=C[C@]4(C)[C@@]3(Cl)[C@@H](O)C[C@@]21C", "note": "[Beclomethasone dipropionate]", "nucleus area z-score": 0.754},
      {"smiles": "CO[C@H]1CC[C@H](N2C(=O)CNc3ncc(-c4ccc(C(C)(C)O)nc4)nc32)CC1", "nucleus area z-score": -6.78},
      {"smiles": "O=C(O)c1cn(-c2ccc(F)cc2)c2cc(N3CCNCC3)c(F)cc2c1=O", "note": "[Sarafloxacin HCl]", "nucleus area z-score": -0.55}
    ]}
  ]
}
